According to PMC8956710:
Like-named read-outs stand apart in the source and are kept apart here. No constants are given. Whether binding was seen depends on the method and setting. Binding seen in cells or lysates may run through a third protein. Some results given as binding are weak or reduced against the parent protein; the word gives no strength. For some of these results: Tags and fused reporters may be left off the sequences shown. Values belong to the molecule of their own block, whether it stands above or below them.

By UniProt entry, the sequences of proteins in these tests, tags left out.
UniProt O95863: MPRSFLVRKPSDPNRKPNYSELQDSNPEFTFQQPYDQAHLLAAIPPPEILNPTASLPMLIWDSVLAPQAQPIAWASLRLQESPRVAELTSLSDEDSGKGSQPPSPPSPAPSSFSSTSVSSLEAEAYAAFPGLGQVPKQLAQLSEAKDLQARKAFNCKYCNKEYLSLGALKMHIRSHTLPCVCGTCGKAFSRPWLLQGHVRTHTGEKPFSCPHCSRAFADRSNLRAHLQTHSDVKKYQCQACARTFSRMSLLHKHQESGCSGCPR

Tests used:
[1] = molecular target: T1, Myc-FBXO31 (UniProt Q5XUX0); assay: co-IP; SGC-7901 cells co-transfected with expression vectors for 48 h, lysed with IP lysis buffer; about 1 mg total protein with 5 µg anti-Flag or anti-Myc antibody or IgG overnight at 4 °C, Protein A/G PLUS agarose beads, western blot
T1 sequence: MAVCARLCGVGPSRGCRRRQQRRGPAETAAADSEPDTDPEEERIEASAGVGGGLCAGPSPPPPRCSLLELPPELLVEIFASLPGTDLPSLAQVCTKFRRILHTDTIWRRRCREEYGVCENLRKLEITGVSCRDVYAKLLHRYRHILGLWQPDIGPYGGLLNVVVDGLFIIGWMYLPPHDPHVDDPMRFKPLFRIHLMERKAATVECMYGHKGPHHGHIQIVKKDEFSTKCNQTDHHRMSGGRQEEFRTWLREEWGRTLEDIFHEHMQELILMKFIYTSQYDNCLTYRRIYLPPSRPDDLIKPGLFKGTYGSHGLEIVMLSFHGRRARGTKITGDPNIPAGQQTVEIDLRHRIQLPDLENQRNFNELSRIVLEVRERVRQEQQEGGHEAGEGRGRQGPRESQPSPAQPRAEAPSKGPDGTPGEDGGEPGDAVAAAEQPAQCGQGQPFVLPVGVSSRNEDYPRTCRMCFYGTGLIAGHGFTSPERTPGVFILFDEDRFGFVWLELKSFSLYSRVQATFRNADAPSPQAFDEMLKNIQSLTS

[2] = molecular target: T2, Flag-STYX (serine/threonine/tyrosine interacting protein) (UniProt Q8WUJ0); assay: as above
T2 sequence: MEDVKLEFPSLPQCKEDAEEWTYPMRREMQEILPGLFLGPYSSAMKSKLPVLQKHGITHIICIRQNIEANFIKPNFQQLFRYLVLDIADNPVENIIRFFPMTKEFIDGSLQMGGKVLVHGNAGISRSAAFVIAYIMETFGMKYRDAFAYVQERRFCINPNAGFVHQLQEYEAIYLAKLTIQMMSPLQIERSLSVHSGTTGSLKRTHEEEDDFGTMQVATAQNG

[3] = molecular target: T1, Myc-FBXO31; assay: as above; remark: listed apart in the source
[4] = molecular target: T3, FBXO31 (endogenous) (human (endogenous in 293T)) (UniProt Q5XUX0); assay: co-IP; endogenous proteins in 293T cells lysed with IP lysis buffer; 5 µg antibody against FBXO31 or STYX or IgG, Protein A/G PLUS agarose beads, western blot
T3 sequence: T1 sequence

binding [1]: binds
Molecule: Snail1 (from UniProt O95863 1-264)

binding [4]: binds
B3: STYX (endogenous) (protein, UniProt Q8WUJ0 1-223)
chain: T2 sequence

Second part, the molecule before the results:

B1: Myc-FBXO31 (protein, UniProt Q5XUX0 1-539)
chain: T1 sequence
binding [2]: binds

B2: Flag-STYX (serine/threonine/tyrosine interacting protein) (protein, UniProt Q8WUJ0 1-223)
chain: T2 sequence
binding [3]: binds
